# Source: PubChem BioAssay (NCATS)
# The shares of active, inactive and inconclusive entries below differ from those in the screen. Potencies beside an inconclusive call are fits to weak or partial responses and may not hold up. Calls of active or inactive are those of the source. Calls follow the shape of the dose curve; as a rule, active = well fitted curve in the direction sought with a large enough effect; inconclusive = small, poorly fitted or top-dose-only effect, or another doubt; inactive = no such curve, though single readings can be large; an effect the other way counts as inactive or inconclusive.
# Key:
# [1] = Quantitative High-Throughput drug screen in 47 multiple myeloma cell lines against the NCATS MIPE library collection: KMS12BM_JCRB cell viability assay (AID 1918971); conditions: KMS12BM myeloma viability, CellTiter-Glo ATP, 48 h; viability, % of DMSO: at 45.8 µM (top of the series); also: nearly all actives have a fitted effect of over 35% in size
# Summary of the method: (§1)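 Inhibition of cell viability is measured here. Each line was plated at 500 cells per well, treated with MIPE 4.0 drugs, kept 48 hours at 37C, then assayed for ATP content by CellTiter-Glo luminescence.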
# [2] = Quantitative High-Throughput drug screen in 47 multiple myeloma cell lines against the NCATS MIPE library collection: KMS12PE_JCRB cell viability assay (AID 1918972); also: nearly all actives have a fitted effect of over 30% in size
# Summary of the method: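 Relative luminescence from CellTiter-Glo served as the viability signal, referenced to DMSO-treated (100%) and cell-free medium (0%) controls. Treatment lasted 48 hours at 37C with 500 cells per well.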
# [3] = Quantitative High-Throughput drug screen in 47 multiple myeloma cell lines against the NCATS MIPE library collection: KMS20_JCRB cell viability assay (AID 1918973); conditions: CellTiter-Glo ATP, 48 h; viability (% of DMSO): at 45.8 µM (top of the series); also: nearly all actives have a fitted effect of over 45% in size
# Summary of the method: (§2)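 Luminescent ATP measurement with CellTiter-Glo gives viability, scaled between DMSO-only wells (100%) and media-only wells (0%). Cells, 500 per well, faced library compounds for 48 hours at 37C.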
# [4] = Quantitative High-Throughput drug screen in 47 multiple myeloma cell lines against the NCATS MIPE library collection: KMS26_JCRB cell viability assay (AID 1918975); conditions: KMS26 myeloma cells viability, CellTiter-Glo ATP, 48 h; viability (% of DMSO): at 45.8 µM (top of the series); also: nearly all actives have a fitted effect of over 45% in size
# Summary of the method: as §1
# [5] = Quantitative High-Throughput drug screen in 47 multiple myeloma cell lines against the NCATS MIPE library collection: MMM1_PLB cell viability assay (AID 1918976); also: nearly all actives have a fitted effect of over 35% in size
# Summary of the method: (§3)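 Readout: median RLU from CellTiter-Glo after 5 min at room temperature. Preceding step was 48 h drug treatment of 500 cells/well at 37 °C, 5% CO2, with DMSO-only and media-only control wells.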
# [6] = Quantitative High-Throughput drug screen in 47 multiple myeloma cell lines against the NCATS MIPE library collection: MOLP8_DSMZ cell viability assay (AID 1918977); conditions: MOLP8 myeloma viability, CellTiter-Glo ATP luminescence, 48 h; viability (% of control): at 45.8 µM (top of the series); also: nearly all actives have a fitted effect of over 45% in size
# Summary of the method: as §3
# [7] = Quantitative High-Throughput drug screen in 47 multiple myeloma cell lines against the NCATS MIPE library collection: OCIMY1_PLB cell viability assay (AID 1918979); also: nearly all actives have a fitted effect of over 35% in size
# Summary of the method: as §3
# [8] = Quantitative High-Throughput drug screen in 47 multiple myeloma cell lines against the NCATS MIPE library collection: KMS21BM_JCRB cell viability assay (AID 1918974); conditions: ATP luminescence, 48 h; viability: at 45.8 µM (top of the series) unless noted
# Summary of the method: as §2
# [9] = Quantitative High-Throughput drug screen in 47 multiple myeloma cell lines against the NCATS MIPE library collection: MM1S_ATCC cell viability assay (AID 1918980); conditions: MM1S myeloma viability, CellTiter-Glo ATP luminescence, 48 h; viability (% of control): at 45.8 µM (top of the series); also: nearly all actives have a fitted effect of over 45% in size
# Summary of the method: as §3
# [10] = Quantitative High-Throughput drug screen in 47 multiple myeloma cell lines against the NCATS MIPE library collection: NCIH929_DSMZ cell viability assay (AID 1918978); conditions: NCI-H929 myeloma viability, CellTiter-Glo ATP, 48 h; viability, % of control: at 45.8 µM (top of the series); also: nearly all actives have a fitted effect of over 35% in size
# Summary of the method: as §3
# Potency is read from the fitted curve at half-maximal effect.
SMILES,Potency [1],Potency [2],Potency [3],Potency [4],Potency [5],Potency [6],Potency [7],Potency [8],Potency [9],Potency [10],viability (% of DMSO) [4]
Cc1cc2cc3c(C)cc(=O)oc3c(C)c2o1,active: 16.6 µM,"inconclusive: 29.6 µM [cytotoxic, single point]","inconclusive: 37.2 µM [cytotoxic, single point]","inconclusive: 18.7 µM [cytotoxic, partial curve]","inconclusive: 10.5 µM [cytotoxic, single point]",inactive,"inconclusive: 0.0012 µM [cytotoxic, full curve, poor fit]",–,–,–,–
O=C(CCc1ccc(O)cc1)c1c(O)cc(O)cc1O[C@@H]1O[C@H](CO)[C@H](O)[C@H](O)[C@H]1O,inactive,inactive,inactive,–,"inconclusive: 9.35 µM [cytotoxic, partial curve, poor fit]","inconclusive: 5.26 µM [cytotoxic, full curve, poor fit]",inactive,"inconclusive: 0.0148 µM [rising, full curve, poor fit]","inconclusive: 0.0019 µM [rising, full curve, poor fit]",–,–
Cc1cc(O)c2c(c1)C(=O)c1cc(O)cc(O)c1C2=O,"inconclusive: 20.9 µM [cytotoxic, partial curve, poor fit]",inactive,inactive,–,active: 18.7 µM,"inconclusive: 20.9 µM [cytotoxic, partial curve, poor fit]",–,"inconclusive: 3.72 µM [rising, full curve, poor fit]","inconclusive: 29.6 µM [cytotoxic, single point]","inconclusive: 0.0372 µM [cytotoxic, full curve, poor fit]",–
Nc1ncnc2c1ncn2[C@@H]1O[C@@H](CO)[C@H](O)[C@H]1O,inactive,inactive,inconclusive: 0.0008 µM [cytotoxic],–,inconclusive: 0.0009 µM,inactive,–,"inconclusive: 2.09 µM [cytotoxic, full curve, poor fit]",inactive,inactive,–
Cc1ccc(C)c(OCCCC(C)(C)C(=O)O)c1,inactive,"inconclusive: 20.9 µM [cytotoxic, partial curve]","inconclusive: 2.09 µM [cytotoxic, partial curve, poor fit]","inconclusive: 0.187 µM [rising, full curve, poor fit]",–,inactive,–,"inconclusive: 18.7 µM [cytotoxic, partial curve, poor fit]","inconclusive: 33.2 µM [cytotoxic, single point]",–,–
CN(c1ncccc1CNc1nc(Nc2ccc3c(c2)CC(=O)N3)ncc1C(F)(F)F)S(C)(=O)=O,active: 9.35 µM,active: 8.33 µM,active: 3.32 µM,active: 7.43 µM,–,–,–,"inconclusive: 37.2 µM [rising, partial curve, poor fit]",active: 6.62 µM,–,–
CC(C)Cc1ccc(C(C)C(=O)O)cc1 (stereo unspecified),"inconclusive: 0.0008 µM [rising, full curve, poor fit]",inconclusive: 0.0007 µM,"inconclusive: 0.0323 µM [rising, full curve, poor fit]","inconclusive: 0.002 µM [rising, full curve, poor fit]",–,inactive,inactive,–,inactive,inactive,–
CC(C)(C)Cn1c(N)nc2ccc(-c3[nH]c(C(C)(C)C)nc3-c3ccc(F)cc3)nc21,active: 23.5 µM,–,"inconclusive: 20.9 µM [cytotoxic, partial curve, poor fit]","inconclusive: 23.5 µM [cytotoxic, single point]",–,active: 7.43 µM,active: 16.6 µM,"inconclusive: 0.0017 µM [rising, full curve]",–,–,–
C[C@H](NC(=O)C(=O)Nc1ccccc1C(C)(C)C)C(=O)N[C@@H](CC(=O)O)C(=O)COc1c(F)c(F)cc(F)c1F,"inconclusive: 0.0059 µM [rising, full curve, poor fit]",–,"inconclusive: 0.132 µM [rising, full curve, poor fit]",inactive,inactive,"inconclusive: 4.69 µM [cytotoxic, full curve, poor fit]",–,active: 6.62 µM,–,inactive,–
CNCc1ccc(-c2[nH]c3cc(F)cc4c3c2CCNC4=O)cc1,"inconclusive: 10.5 µM [cytotoxic, full curve, poor fit]",–,"inconclusive: 0.0469 µM [cytotoxic, full curve, poor fit]",–,–,"inconclusive: 18.7 µM [cytotoxic, partial curve, poor fit]",–,"inconclusive: 7.43 µM [rising, partial curve, poor fit]","inconclusive: 20.9 µM [cytotoxic, single point]",inactive,inconclusive: 108% [cytotoxic]
CCCNS(=O)(=O)Nc1ncnc(OCCOc2ncc(Br)cn2)c1-c1ccc(Br)cc1,inactive,–,"inconclusive: 0.662 µM [cytotoxic, full curve, poor fit]","inconclusive: 0.0074 µM [rising, full curve, poor fit]","inconclusive: 10.5 µM [cytotoxic, partial curve, poor fit]",inactive,–,"inconclusive: 14.8 µM [rising, partial curve]",inactive,inactive,–
O=c1cc(-c2ccccc2)oc2cc(O)c(O)c(O)c12,"inconclusive: 29.6 µM [cytotoxic, single point]",–,"inconclusive: 26.4 µM [cytotoxic, single point]","inconclusive: 37.2 µM [cytotoxic, single point]",–,"inconclusive: 13.2 µM [cytotoxic, partial curve, poor fit]","inconclusive: 5.26 µM [cytotoxic, partial curve, poor fit]","inconclusive: 33.2 µM [rising, partial curve]",–,"inconclusive: 37.2 µM [cytotoxic, single point]",–
O=C(O)c1cc(O)c2c(c1)C(=O)c1cccc(O)c1C2=O,"inconclusive: 38.2 µM [cytotoxic, partial curve, poor fit]",–,"inconclusive: 3.82 µM [cytotoxic, full curve, poor fit]","inconclusive: 54 µM [cytotoxic, single point]",–,–,–,"inconclusive: 19.1 µM [rising, partial curve, poor fit]",inactive,–,–
CC1(C)NC(=O)N(c2ccc([N+](=O)[O-])c(C(F)(F)F)c2)C1=O,"inconclusive: 13.2 µM [cytotoxic, partial curve, poor fit]",–,"inconclusive: 0.0074 µM [cytotoxic, full curve, poor fit]","inconclusive: 29.6 µM [cytotoxic, partial curve, poor fit]",–,inactive,inactive,"inconclusive: 0.0093 µM [rising, full curve]","inconclusive: 20.9 µM [cytotoxic, partial curve, poor fit]",–,–
CC1Cc2ccccc2N1NC(=O)c1ccc(Cl)c(S(N)(=O)=O)c1 (stereo unspecified),inactive,–,"inconclusive: 10.5 µM [rising, partial curve, poor fit]","inconclusive: 8.33 µM [cytotoxic, partial curve, poor fit]","inconclusive: 1.18 µM [cytotoxic, full curve, poor fit]",inactive,–,"inconclusive: 29.6 µM [rising, partial curve]",–,–,–
Oc1ccc(C2=Cc3ccc(O)cc3OC2)cc1,active: 2.96 µM,"inconclusive: 1.87 µM [cytotoxic, full curve]",–,–,–,–,"inconclusive: 4.18 µM [cytotoxic, full curve, poor fit]",active: 2.35 µM,–,active: 2.09 µM,–
O=NN(CCCl)C(=O)NCCCl,"inconclusive: 0.0042 µM [rising, full curve, poor fit]",–,inconclusive: 0.001 µM,"inconclusive: 6.62 µM [rising, partial curve, poor fit]","inconclusive: 0.0059 µM [rising, full curve, poor fit]",inactive,"inconclusive: 0.418 µM [rising, full curve, poor fit]",inactive,"inconclusive: 5.9 µM [rising, partial curve, poor fit]",–,–
CC(C)c1ccc2oc3nc(N)c(C(=O)O)cc3c(=O)c2c1,"inconclusive: 33.2 µM [cytotoxic, single point]",–,"inconclusive: 4.18 µM [cytotoxic, partial curve, poor fit]","inconclusive: 0.0033 µM [cytotoxic, full curve, poor fit]","inconclusive: 0.003 µM [rising, full curve, poor fit]","inconclusive: 18.7 µM [cytotoxic, partial curve, poor fit]","inconclusive: 0.0264 µM [rising, full curve, poor fit]","inconclusive: 16.6 µM [cytotoxic, partial curve, poor fit]","inconclusive: 0.0019 µM [rising, full curve, poor fit]",–,–
O=C(c1ccccc1)c1ccc2n1CCC2C(=O)O (stereo unspecified),inactive,–,active: 8.33 µM,active: 1.48 µM,–,inactive,–,inactive,–,–,–

# Record cards, from the list above. Order of values: Potency [1]	Potency [2]	Potency [3]	Potency [4]	Potency [5]	Potency [6]	Potency [7]	Potency [8]	Potency [9]	Potency [10]	viability (% of DMSO) [4]
# Cc1cc(O)c2c(c1)C(=O)c1cc(O)cc(O)c1C2=O reads inconclusive: 20.9 µM [cytotoxic, partial curve, poor fit]	inactive	inactive	–	active: 18.7 µM	inconclusive: 20.9 µM [cytotoxic, partial curve, poor fit]	–	inconclusive: 3.72 µM [rising, full curve, poor fit]	inconclusive: 29.6 µM [cytotoxic, single point]	inconclusive: 0.0372 µM [cytotoxic, full curve, poor fit]	–
# CCCNS(=O)(=O)Nc1ncnc(OCCOc2ncc(Br)cn2)c1-c1ccc(Br)cc1 reads inactive	–	inconclusive: 0.662 µM [cytotoxic, full curve, poor fit]	inconclusive: 0.0074 µM [rising, full curve, poor fit]	inconclusive: 10.5 µM [cytotoxic, partial curve, poor fit]	inactive	–	inconclusive: 14.8 µM [rising, partial curve]	inactive	inactive	–
